Source: the supplement of paper PMC10849652
Some of the results follow.

The chains behind the UniProt entries cited, without tags or fusion partners. Where a name states a change or a piece, a line headed by the entry shows the natural chain unless it says otherwise.
UniProt P16118: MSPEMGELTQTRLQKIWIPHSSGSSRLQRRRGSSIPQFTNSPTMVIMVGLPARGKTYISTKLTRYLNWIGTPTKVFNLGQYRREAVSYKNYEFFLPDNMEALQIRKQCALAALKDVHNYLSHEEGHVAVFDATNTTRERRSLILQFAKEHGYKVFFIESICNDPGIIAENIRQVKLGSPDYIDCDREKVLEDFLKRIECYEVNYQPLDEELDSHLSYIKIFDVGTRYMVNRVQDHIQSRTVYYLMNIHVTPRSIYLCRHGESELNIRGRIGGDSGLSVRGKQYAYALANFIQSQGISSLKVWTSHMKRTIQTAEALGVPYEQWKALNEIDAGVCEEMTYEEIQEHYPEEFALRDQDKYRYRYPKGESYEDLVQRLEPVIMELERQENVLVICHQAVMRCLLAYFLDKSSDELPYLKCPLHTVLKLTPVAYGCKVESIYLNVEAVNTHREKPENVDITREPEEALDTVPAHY
UniProt Q13442: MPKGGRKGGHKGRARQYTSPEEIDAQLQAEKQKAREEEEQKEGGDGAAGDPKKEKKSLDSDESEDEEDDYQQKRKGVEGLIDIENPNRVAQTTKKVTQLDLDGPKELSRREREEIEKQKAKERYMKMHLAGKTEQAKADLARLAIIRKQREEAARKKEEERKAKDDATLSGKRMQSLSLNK
UniProt Q15084: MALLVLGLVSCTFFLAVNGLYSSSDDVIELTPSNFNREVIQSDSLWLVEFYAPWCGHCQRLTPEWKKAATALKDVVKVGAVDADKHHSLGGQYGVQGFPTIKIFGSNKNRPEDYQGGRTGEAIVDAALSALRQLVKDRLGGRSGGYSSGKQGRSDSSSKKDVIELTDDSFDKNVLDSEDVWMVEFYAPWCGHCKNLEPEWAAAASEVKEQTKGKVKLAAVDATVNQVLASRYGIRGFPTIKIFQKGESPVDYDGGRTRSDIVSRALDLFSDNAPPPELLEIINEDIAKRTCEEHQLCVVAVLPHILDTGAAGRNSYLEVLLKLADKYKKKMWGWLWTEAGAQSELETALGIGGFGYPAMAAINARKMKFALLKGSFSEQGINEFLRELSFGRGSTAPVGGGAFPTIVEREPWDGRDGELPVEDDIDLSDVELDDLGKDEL
UniProt O00151: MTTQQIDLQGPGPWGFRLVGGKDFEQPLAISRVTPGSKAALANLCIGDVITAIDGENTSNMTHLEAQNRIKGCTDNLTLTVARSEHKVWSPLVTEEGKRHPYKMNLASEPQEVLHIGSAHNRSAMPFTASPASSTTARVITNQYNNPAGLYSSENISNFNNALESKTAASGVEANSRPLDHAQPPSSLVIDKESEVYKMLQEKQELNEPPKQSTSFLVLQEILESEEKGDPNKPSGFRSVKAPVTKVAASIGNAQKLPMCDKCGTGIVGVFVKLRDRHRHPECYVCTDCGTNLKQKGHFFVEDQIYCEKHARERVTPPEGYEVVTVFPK
UniProt Q6L8Q7: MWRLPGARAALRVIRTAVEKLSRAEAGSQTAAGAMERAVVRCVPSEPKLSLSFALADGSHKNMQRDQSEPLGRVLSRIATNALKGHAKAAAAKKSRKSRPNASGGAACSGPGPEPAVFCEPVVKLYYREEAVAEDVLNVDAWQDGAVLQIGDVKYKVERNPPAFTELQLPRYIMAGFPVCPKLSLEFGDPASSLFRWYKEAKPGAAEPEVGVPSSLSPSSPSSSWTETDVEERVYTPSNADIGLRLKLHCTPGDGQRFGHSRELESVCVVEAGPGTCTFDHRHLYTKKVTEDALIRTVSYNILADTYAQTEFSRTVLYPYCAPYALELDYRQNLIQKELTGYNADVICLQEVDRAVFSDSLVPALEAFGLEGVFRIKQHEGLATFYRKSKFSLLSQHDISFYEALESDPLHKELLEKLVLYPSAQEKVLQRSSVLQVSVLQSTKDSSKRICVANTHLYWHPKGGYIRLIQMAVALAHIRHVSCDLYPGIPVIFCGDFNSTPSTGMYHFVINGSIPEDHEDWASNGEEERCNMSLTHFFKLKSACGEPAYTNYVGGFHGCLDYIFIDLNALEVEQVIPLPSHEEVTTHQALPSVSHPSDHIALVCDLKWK
UniProt Q9H6A9: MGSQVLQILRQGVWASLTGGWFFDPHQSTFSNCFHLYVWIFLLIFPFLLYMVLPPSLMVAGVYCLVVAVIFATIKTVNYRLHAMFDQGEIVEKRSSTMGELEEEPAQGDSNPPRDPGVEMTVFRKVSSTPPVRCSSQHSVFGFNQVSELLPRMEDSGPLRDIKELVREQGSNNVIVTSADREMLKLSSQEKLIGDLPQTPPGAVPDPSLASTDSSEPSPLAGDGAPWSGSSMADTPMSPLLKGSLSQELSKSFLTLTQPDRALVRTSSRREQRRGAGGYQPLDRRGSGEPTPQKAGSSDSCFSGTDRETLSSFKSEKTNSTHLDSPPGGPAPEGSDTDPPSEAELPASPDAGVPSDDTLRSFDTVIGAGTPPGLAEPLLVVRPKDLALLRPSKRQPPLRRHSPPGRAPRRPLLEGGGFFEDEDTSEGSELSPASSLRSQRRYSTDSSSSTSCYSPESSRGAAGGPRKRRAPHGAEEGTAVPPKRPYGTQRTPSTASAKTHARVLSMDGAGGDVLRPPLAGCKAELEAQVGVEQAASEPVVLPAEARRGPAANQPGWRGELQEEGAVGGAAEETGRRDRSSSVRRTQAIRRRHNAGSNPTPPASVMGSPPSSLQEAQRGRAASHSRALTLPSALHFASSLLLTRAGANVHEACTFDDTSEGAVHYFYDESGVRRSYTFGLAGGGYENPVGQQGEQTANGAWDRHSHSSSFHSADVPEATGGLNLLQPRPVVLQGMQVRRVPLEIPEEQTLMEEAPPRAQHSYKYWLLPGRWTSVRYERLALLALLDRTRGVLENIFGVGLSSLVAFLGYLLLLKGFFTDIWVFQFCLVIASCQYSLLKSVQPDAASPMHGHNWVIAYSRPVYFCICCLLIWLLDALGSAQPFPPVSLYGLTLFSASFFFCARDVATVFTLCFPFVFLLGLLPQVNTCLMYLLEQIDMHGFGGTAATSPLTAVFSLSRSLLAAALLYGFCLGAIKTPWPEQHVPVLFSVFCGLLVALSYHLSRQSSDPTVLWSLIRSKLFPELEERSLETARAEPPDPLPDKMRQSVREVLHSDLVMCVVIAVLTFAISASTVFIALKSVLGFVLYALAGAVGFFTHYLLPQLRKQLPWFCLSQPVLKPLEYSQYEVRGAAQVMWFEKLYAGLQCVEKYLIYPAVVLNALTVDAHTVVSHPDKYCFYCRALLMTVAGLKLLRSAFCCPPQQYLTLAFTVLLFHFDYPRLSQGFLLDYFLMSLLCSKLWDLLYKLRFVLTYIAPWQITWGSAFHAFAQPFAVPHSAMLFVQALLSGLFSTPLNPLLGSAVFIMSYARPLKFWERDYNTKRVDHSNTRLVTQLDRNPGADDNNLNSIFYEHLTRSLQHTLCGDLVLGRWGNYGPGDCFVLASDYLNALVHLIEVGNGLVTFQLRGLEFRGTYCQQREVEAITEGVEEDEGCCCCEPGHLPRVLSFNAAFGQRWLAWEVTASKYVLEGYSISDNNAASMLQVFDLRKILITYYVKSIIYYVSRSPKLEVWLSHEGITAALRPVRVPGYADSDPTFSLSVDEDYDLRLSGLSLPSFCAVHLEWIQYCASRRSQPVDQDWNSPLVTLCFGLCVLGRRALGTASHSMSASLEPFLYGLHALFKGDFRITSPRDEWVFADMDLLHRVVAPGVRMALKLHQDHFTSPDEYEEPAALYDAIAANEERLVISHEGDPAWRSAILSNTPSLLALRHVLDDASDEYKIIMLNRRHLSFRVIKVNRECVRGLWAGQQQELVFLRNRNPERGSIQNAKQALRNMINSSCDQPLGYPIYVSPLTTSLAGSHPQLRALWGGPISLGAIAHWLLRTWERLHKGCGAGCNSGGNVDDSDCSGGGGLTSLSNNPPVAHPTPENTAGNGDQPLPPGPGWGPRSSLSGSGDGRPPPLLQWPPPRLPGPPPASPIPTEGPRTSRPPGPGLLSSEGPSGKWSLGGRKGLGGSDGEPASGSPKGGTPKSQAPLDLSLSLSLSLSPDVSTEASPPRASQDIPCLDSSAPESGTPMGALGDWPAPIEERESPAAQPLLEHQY
UniProt Q86YH6: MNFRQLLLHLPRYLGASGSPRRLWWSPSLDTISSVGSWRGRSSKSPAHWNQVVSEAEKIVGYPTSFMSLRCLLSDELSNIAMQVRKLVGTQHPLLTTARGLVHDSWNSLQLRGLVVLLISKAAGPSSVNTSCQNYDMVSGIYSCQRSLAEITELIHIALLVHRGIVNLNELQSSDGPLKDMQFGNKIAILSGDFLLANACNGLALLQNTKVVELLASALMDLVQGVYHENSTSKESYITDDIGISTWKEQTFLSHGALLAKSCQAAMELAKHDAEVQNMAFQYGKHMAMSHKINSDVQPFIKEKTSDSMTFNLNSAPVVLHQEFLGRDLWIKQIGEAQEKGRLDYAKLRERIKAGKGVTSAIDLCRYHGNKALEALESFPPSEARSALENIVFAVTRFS

Experiments:
Assay in all cases: log2 fold change, soluble protein after heating vs DMSO (PISA); higher = thermal stabilisation; K562 lysate, 10 uM; active = over 0.2 and 3.5 SD of the protein, either way, in both replicates (recomputed)
lapatinib = compound: CS(=O)(=O)CCNCc1ccc(-c2ccc3ncnc(Nc4ccc(OCc5cccc(F)c5)c(Cl)c4)c3c2)o1 [lapatinib]
Procedure, shortened: (§1)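 The values are log-two fold changes in thermal stability compared with solvent controls and come from duplicates. They were obtained by TMTpro 16plex LC-MS/MS, with channel sums equalised, on the supernatant after 21,000xg for 90 min. That supernatant came from crude K562 extract at 1 mg/mL protein treated with 10 μM compound for 30 min, heated for 3 min across 48°C-58°C, pooled and brought to 0.5% NP-40 at 4°C.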

pictilisib = compound: CS(=O)(=O)N1CCN(Cc2cc3nc(-c4cccc5[nH]ncc45)nc(N4CCOCC4)c3s2)CC1 [pictilisib]
Procedure, shortened: as §1

[1] = compound: C[C@H](C1=CC=C(C=C1)C(=O)NC2=C3C=CNC3=NC=C2)N
Procedure, shortened: as §1

duvelisib = compound: C[C@H](Nc1ncnc2nc[nH]c12)c1cc2cccc(Cl)c2c(=O)n1-c1ccccc1 [duvelisib]
Procedure, shortened: as §1

gandotinib = compound: Cc1cc(Nc2cc(CN3CCOCC3)c3nc(C)c(Cc4ccc(Cl)cc4F)n3n2)n[nH]1 [gandotinib]
Procedure, shortened: as §1

tozasertib = compound: Cc1cc(Nc2cc(N3CCN(C)CC3)nc(Sc3ccc(NC(=O)C4CC4)cc3)n2)n[nH]1 [tozasertib]
Procedure, shortened: as §1

bafetinib = compound: Cc1ccc(NC(=O)c2ccc(CN3CC[C@H](N(C)C)C3)c(C(F)(F)F)c2)cc1Nc1nccc(-c2cncnc2)n1 [bafetinib]
Procedure, shortened: as §1

[2] = compound: Cc1cccc(CC(=O)N2CCc3c2ccc(-c2cn(C)c4ncnc(N)c24)c3F)n1
Procedure, shortened: as §1

dasatinib = compound: Cc1nc(Nc2ncc(C(=O)Nc3c(C)cccc3Cl)s2)cc(N2CCN(CCO)CC2)n1 [dasatinib]
Procedure, shortened: as §1

[3] = compound: Cn1cc(-c2ccc3c(c2)CCN3C(=O)Cc2cccc(C(F)(F)F)c2)c2c(N)ncnc21
Procedure, shortened: as §1

[4] = compound: NC(=O)c1cnc(N[C@@H]2CCCC[C@@H]2N)nc1Nc1cccc(-n2nccn2)c1
Procedure, shortened: as §1

[5] = compound: NC1(c2ccc(-c3nc4ccn5c(=O)[nH]nc5c4cc3-c3ccccc3)cc2)CCC1
Procedure, shortened: as §1

crizotinib = compound: C[C@@H](Oc1cc(-c2cnn(C3CCNCC3)c2)cnc1N)c1c(Cl)ccc(F)c1Cl [crizotinib]
Procedure, shortened: as §1

doramapimod = compound: Cc1ccc(-n2nc(C(C)(C)C)cc2NC(=O)Nc2ccc(OCCN3CCOCC3)c3ccccc23)cc1 [doramapimod]
Procedure, shortened: as §1

nilotinib = compound: Cc1cn(-c2cc(NC(=O)c3ccc(C)c(Nc4nccc(-c5cccnc5)n4)c3)cc(C(F)(F)F)c2)cn1 [nilotinib]
Procedure, shortened: as §1

[6] = compound: Cc1nc(Nc2n[nH]c3c2CN(C(=O)N[C@H](CN(C)C)c2ccccc2)C3(C)C)c2sccc2n1
Procedure, shortened: as §1

[7] = compound: Cc1ncc(-c2ccnc(Nc3ccc(S(C)(=O)=O)cc3)n2)n1C(C)C
Procedure, shortened: as §1

quisinostat = compound: Cn1cc(CNCC2CCN(c3ncc(C(=O)NO)cn3)CC2)c2ccccc21 [quisinostat]
Procedure, shortened: as §1

tipifarnib = compound: Cn1cncc1[C@@](N)(c1ccc(Cl)cc1)c1ccc2c(c1)c(-c1cccc(Cl)c1)cc(=O)n2C [tipifarnib]
Procedure, shortened: as §1

[8] = compound: NC(=O)Nc1cc(-c2cccc(F)c2)sc1C(=O)N[C@H]1CCCNC1
Procedure, shortened: as §1

## PFKFB1 (UniProt P16118)
lapatinib
  log2 fold change: inactive: -0.173
pictilisib
  log2 fold change: inactive: -0.042
[1]
  log2 fold change: inactive: 0.069
duvelisib
  log2 fold change: inactive: -0.038
gandotinib
  log2 fold change: inactive: -0.049
tozasertib
  log2 fold change: inactive: 0.125
bafetinib
  log2 fold change: inactive: -0.149
[2]
  log2 fold change: inactive: 0.031
dasatinib
  log2 fold change: inactive: -0.017
[3]
  log2 fold change: inactive: 0.004
[4]
  log2 fold change: inactive: 0.04
[5]
  log2 fold change: inactive: 0.017

## PDAP1 (UniProt Q13442)
lapatinib
  log2 fold change: inactive: -0.004
pictilisib
  log2 fold change: inactive: 0.03
crizotinib
  log2 fold change: inactive: 0.043
[1]
  log2 fold change: active: -0.232
duvelisib
  log2 fold change: inactive: -0.043
gandotinib
  log2 fold change: inactive: 0.135
tozasertib
  log2 fold change: inactive: -0.026
doramapimod
  log2 fold change: inactive: -0.03
bafetinib
  log2 fold change: inactive: 0.006
[2]
  log2 fold change: inactive: 0.089
nilotinib
  log2 fold change: inactive: 0
[6]
  log2 fold change: inactive: 0.002
dasatinib
  log2 fold change: inactive: 0.066
[7]
  log2 fold change: inactive: -0.01
[3]
  log2 fold change: inactive: -0.009
quisinostat
  log2 fold change: inactive: 0.013
tipifarnib
  log2 fold change: inactive: 0.044
[8]
  log2 fold change: inactive: 0.017
[4]
  log2 fold change: inactive: -0.016
[5]
  log2 fold change: inactive: -0.032

## PDIA6 isoform 2 (UniProt Q15084)
lapatinib
  log2 fold change: inactive: -0.009
pictilisib
  log2 fold change: inactive: 0.033
crizotinib
  log2 fold change: inactive: 0.001
[1]
  log2 fold change: inactive: 0.054
duvelisib
  log2 fold change: inactive: 0.024
gandotinib
  log2 fold change: inactive: -0.016
tozasertib
  log2 fold change: inactive: 0.02
doramapimod
  log2 fold change: inactive: -0.017
bafetinib
  log2 fold change: inactive: 0.045
[2]
  log2 fold change: inactive: -0.012
nilotinib
  log2 fold change: inactive: -0.017
[6]
  log2 fold change: inactive: -0.024
dasatinib
  log2 fold change: inactive: 0.015
[7]
  log2 fold change: inactive: 0.021
[3]
  log2 fold change: inactive: -0.013
quisinostat
  log2 fold change: inactive: 0.017
tipifarnib
  log2 fold change: inactive: 0.021
[8]
  log2 fold change: inactive: -0.019
[4]
  log2 fold change: inactive: 0.022
[5]
  log2 fold change: inactive: -0.003

## PDLIM1 (UniProt O00151)
lapatinib
  log2 fold change: inactive: 0.028
pictilisib
  log2 fold change: inactive: 0.008
crizotinib
  log2 fold change: inactive: 0.022
[1]
  log2 fold change: inactive: 0.038
duvelisib
  log2 fold change: inactive: 0.008
gandotinib
  log2 fold change: inactive: 0.013
tozasertib
  log2 fold change: inactive: -0.016
doramapimod
  log2 fold change: inactive: -0.03
bafetinib
  log2 fold change: inactive: 0.039
[2]
  log2 fold change: inactive: -0.076
nilotinib
  log2 fold change: inactive: 0.036
[6]
  log2 fold change: inactive: 0.018
dasatinib
  log2 fold change: inactive: 0.001
[7]
  log2 fold change: inactive: 0.062
[3]
  log2 fold change: inactive: -0.037
quisinostat
  log2 fold change: inactive: 0.037
tipifarnib
  log2 fold change: inactive: 0.017
[8]
  log2 fold change: inactive: -0.012
[4]
  log2 fold change: inactive: -0.02
[5]
  log2 fold change: inactive: 0.003

## PDE12 (UniProt Q6L8Q7)
lapatinib
  log2 fold change: inactive: -0.009
pictilisib
  log2 fold change: inactive: 0.021
crizotinib
  log2 fold change: inactive: 0.016
[1]
  log2 fold change: inactive: 0.022
duvelisib
  log2 fold change: inactive: -0.015
gandotinib
  log2 fold change: inactive: 0.017
tozasertib
  log2 fold change: inactive: -0.018
doramapimod
  log2 fold change: inactive: -0.037
bafetinib
  log2 fold change: inactive: -0.037
[2]
  log2 fold change: inactive: -0.015
nilotinib
  log2 fold change: inactive: 0.05
[6]
  log2 fold change: inactive: 0.006
dasatinib
  log2 fold change: inactive: -0.055
[7]
  log2 fold change: inactive: 0.078
[3]
  log2 fold change: inactive: 0.013
quisinostat
  log2 fold change: inactive: -0.003
tipifarnib
  log2 fold change: inactive: -0.028
[8]
  log2 fold change: inactive: 0.018
[4]
  log2 fold change: inactive: 0.003
[5]
  log2 fold change: inactive: -0.014

## PCNX3 (UniProt Q9H6A9)
lapatinib
  log2 fold change: inactive: 0.014
pictilisib
  log2 fold change: inactive: -0.097
crizotinib
  log2 fold change: inactive: 0.037
[1]
  log2 fold change: inactive: -0.195
duvelisib
  log2 fold change: inactive: 0
gandotinib
  log2 fold change: inactive: 0.034
tozasertib
  log2 fold change: inactive: 0.055
doramapimod
  log2 fold change: inactive: -0.045
bafetinib
  log2 fold change: inactive: -0.204
[2]
  log2 fold change: inactive: -0.059
dasatinib
  log2 fold change: inactive: -0.048
[3]
  log2 fold change: inactive: -0.043
quisinostat
  log2 fold change: inactive: 0.113
[8]
  log2 fold change: inactive: 0.048
[4]
  log2 fold change: inactive: -0.058

## PDSS2 (UniProt Q86YH6)
lapatinib
  log2 fold change: inactive: 0.004
pictilisib
  log2 fold change: inactive: 0.032
crizotinib
  log2 fold change: inactive: -0.013
[1]
  log2 fold change: inactive: 0.049
duvelisib
  log2 fold change: inactive: -0.082
gandotinib
  log2 fold change: inactive: 0.012
doramapimod
  log2 fold change: inactive: 0.011
bafetinib
  log2 fold change: inactive: -0.099
[2]
  log2 fold change: inactive: -0.085
nilotinib
  log2 fold change: inactive: 0.051
[6]
  log2 fold change: inactive: 0.006
dasatinib
  log2 fold change: inactive: -0.068
[7]
  log2 fold change: inactive: -0.021
[3]
  log2 fold change: inactive: 0.028
quisinostat
  log2 fold change: inactive: -0.111
tipifarnib
  log2 fold change: inactive: -0.018
[8]
  log2 fold change: inactive: 0.021
[4]
  log2 fold change: inactive: -0.04
[5]
  log2 fold change: inactive: -0.038
